Measured values as given in patent US20220402883A1, “COMPOUNDS AND METHODS FOR MODULATING RNA FUNCTION” (Arrakis Therapeutics, Inc., priority 2016, published 2022).

System: 41CAG and 17CAG sequences
Experiment: NMR group epitope mapping (STD)
Format: binding
Details: both RNA constructs; 10 mM Tris pH 8.0, 5 mM DTT, 5% DMSO-d6; T=288.1 K

SMILES | epitope mapping (scaled STD effect): protons in closer proximity to RNA
O=C(c1ccc(Cl)cc1)N1CCN(c2ccc([N+](=O)[O-])c3ncccc23)CC1 [CPNQ, reference compound] | protons of the chlorophenyl moiety are in closer proximity to RNA than the nitroquinoline
Cc1nn(-c2ccccc2)nc1CN [HP-AC008001-E02] | aromatic protons closest to the heterocycle are in closer proximity to RNA protons
OCc1cccc(-c2cccnc2)c1 [HP-AC008002-E01] | protons of the pyridine ring are in closer proximity to RNA than the benzene ring
CC(O)CNCc1ccc(-c2ccccc2)o1 (stereo not shown) [HP-AT005003-C03] | protons of the furan moiety are in closer proximity to RNA protons than the phenyl
